Among all 52,000 sequences or so, about 210 (0.4%) were called active.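 The calls were made as follows: active = gene whose silencing raises cell survival under the drug, median off-target-corrected z-score across its silencing RNAs 2 or more; inactive = the rest.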 Some of the results follow.
Test: Resistance to Poly (ADP-Ribose) Polymerase inhibitor: Gene Identification via Genome-wide siRNA Screen
Details: mouse BRCA2 R2336H ES cells, olaparib, CellTiter-Glo viability; hits give high values
Outline: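 Mouse BRCA2 R2336H ES cells were reverse-transfected with siRNA (20 nM final), treated at 48 h with 500 nM olaparib, and read by CellTiter-Glo after 72 h. Scores: MAD-based z per siRNA, median per gene, seed off-target correction.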

Row | Sequence | z-score
1 | GGAUCAUCAAGAUAUAGAUTT against Trpm7 | inactive: 2.01
2 | CGGAAUCAUUCGGAAUGAGTT against Capza3 | inactive: 0.244
3 | GGGCUUUAUUCAUCCACUCTT against 1700067P10Rik | inactive: 1.42
4 | GGAAGUGAUGCAUAAAUACTT against Ppef2 | inactive: -0.697
5 | CGCAGUGCACAUCAAGGGATT against Lfng | inactive: 0.589
6 | GGAACAUCCAGUCUCUCACTT against Fbxo31 | inactive: 0.758
7 | GGACAAGGUGGAUAAAAGUTT against Cttn | inactive: -1
8 | GGAGAUCAGGCUGUUCACATT against Mei1 | inactive: -1.12
9 | GCACAGUGGUGUUAAAUAGTT against 2510009E07Rik | inactive: -1.57
10 | GCCUGAAGCAAGACAAGAUTT against 1110014F24Rik | inactive: 2.02
11 | CCGACUCCCAUCUUGUGAATT against BC018371 | inactive: -1.63
12 | GUCACCCGCUCAAAUCAGATT against Hist2h2be | inactive: 1.35
13 | GCUUAAGGUUAUUUGCUUGTT against Cct7 | inactive: -0.0754
14 | GGCCUUCAAAUCAUACGCUTT against 1700025F22Rik | inactive: 0.463
15 | GCCGUACUUUCUGAGAUUATT against 2810403P18Rik | inactive: -0.75
16 | GGCUAGAAUUCAGAGUUAATT against 9830132L24 | inactive: 2.35
17 | GGAAUAAAGCUACAUUGUUTT against 6530401L14Rik | inactive: 0.892
18 | GGAGAAGAAAGAAGUUAAATT against Mtap1b | inactive: -0.17
19 | GGAGGAGUUCUGCAUCUACTT against Syngr1 | inactive: -0.61
20 | GCAUGUCCCAUCAAUGGUCTT against Akr1d1 | inactive: -0.606
21 | ACAGAUUUUACUUUAACAUTT against Olfr1228 | inactive: 1.73
22 | GGAUAUAUACACGGAGAACTT against Card15 | inactive: -0.0373
23 | GCCUUAGGCCUUUGUUUCCTT against 5730494M16Rik | inactive: 0.0938
24 | GGCAUAUGCUGGAGUUAUCTT against 2210018M11Rik | inactive: -0.941
25 | GGUGAACGACUCCAUGUAUTT against Pvrl1 | inactive: -1.38
26 | GCUGUUCCUAUUUCAUGACTT against A430065P19Rik | inactive: 0.0951

Row | Sequence | z-score
27 | GGAAGUCAAGGUGAUUUCATT against 1110017C15Rik | inactive: -1.4
28 | GGGACUUUGCCAAGAAUACTT against Klkb1 | inactive: -2.71
29 | GCUGGCAGUUUGUAAGUAGTT against 6230409E13Rik | inactive: -0.925
30 | GGAUAUUUGUCAUUUCCUUTT against 1110063G11Rik | inactive: 1.78
31 | GGUUUUUCAGUGACACAUGTT against V1ri1 | inactive: -1.04
32 | GCUGAAUGCCCAAUGCACUTT against Gabra1 | inactive: 0.0291
33 | GGACAAACUCCGAGACUCCTT against Utf1 | inactive: -0.408
34 | GGUUAGCUUCUUAAAACCATT against Sacy | inactive: -0.0897
35 | GGACUUCAUAUUAGCAUGUTT against 1300012G16Rik | inactive: 0.873
36 | GGUUCCAAGAACCCUCAUCTT against Swap70 | inactive: 0.364
37 | GGAGAAAAUUGUCAAGAAGTT against Wdr10 | inactive: 0.0722
38 | GGUGUUAGCGAAAUGCUCATT against Prlpn | inactive: -1.33
39 | GGCUUACAGUCCUGAAUUUTT against Gpr17 | inactive: 1.08
40 | GGUGAACUUGACCUCACAGTT against Sp1 | inactive: -2.38
41 | GCAUGUACGUCGCCUUGUUTT against Dctd | inactive: -2.39
42 | GCCUUUGCUGAGAUAACUUTT against Birc5 | inactive: -1.72
43 | GGAUCGCUGGUGUGUUUUUTT against A530023G15Rik | inactive: 0.477
44 | GGAAGUAUUAACAAUGGUGTT against 4632411J06Rik | inactive: -0.317
45 | GGCAUUUGGGACUUGUGUGTT against Olfr78 | inactive: -0.193
46 | GGCAGUAACUUAAAACAGATT against Mecp2 | inactive: 0.261
47 | CCAGCCUGAAAGAAGAGAATT against Ifna14 | inactive: 0.961
48 | CCCUACAAGAAUUUUGAGATT against 4931415M17 | inactive: 0.417
49 | CCGAUGGAGGUUCCUACUGTT against Cry2 | inactive: -0.461
50 | CGUGGUUAAGUCACGACUGTT against Slc25a29 | inactive: -0.675
51 | GCUGUCAAAUUAACCUGUGTT against Spin2 | inactive: 0.274
52 | CCACGACGUACAUCCAUAATT against 5930418K15Rik | inactive: -0.427

Row | Sequence | z-score
53 | GGUGACCUUGAACAAGCCCTT against Odf3 | inactive: 0.519
54 | GCCGGUCCUCUCUUACUACTT against Irs1 | inactive: 0.68
55 | CCAAUCGGUGAUCAAGAAATT against Tcfap2e | inactive: 1.74
56 | CGCAGACGUACAAGUCUCATT against 1700018B24Rik | inactive: 0.222
57 | GGGUUCUCUAUAUCACAGGTT against Mrgpra3 | inactive: -0.224
58 | GGGCUACUACAAUGAGUACTT against Phospho1 | inactive: -0.329
59 | GGCUUCUACCUUCGAGACUTT against AI790298 | inactive: -0.552
60 | GCUAUGAACUUGUAGGAAATT against 1700042N06Rik | inactive: 0.558
61 | GGCAUUGACACAAGGGAUGTT against Olfr975 | inactive: -2.12
62 | GGAAAAAGAUGCUUUCACATT against 4933409I22 | inactive: -0.345
63 | GGAGGAACUCCUAAAGAAGTT against Galnt15 | inactive: -0.261
64 | GGACAUUGUUUACAAGCUGTT against Rnf3 | inactive: -0.146
65 | GGGUUUUCUAACAUUCAAATT against Pigm | inactive: 0.793
66 | GGAGUUUGACCGGAAGUACTT against 3110043J09Rik | inactive: -1.12
67 | GGAAGAAGAAAAGAAAGACTT against Gphn | inactive: 0.849
68 | GCAGUCGAGAUCAAACAGGTT against Crabp2 | inactive: 0.413
69 | CCUUCAGCUUCCUUUUUACTT against A630098G03Rik | inactive: 0.142
70 | GCUGUGACUCUACUGGAGGTT against Zfp397 | inactive: 0.21
71 | GGCCUUGAUGCCAUUGUAATT against Zfp364 | inactive: -1.56
72 | CUGGUUAGAAAGAUCUUCCTT against AY616753 | inactive: -0.37
73 | GGAGAAGAAAAAGAUUAUCTT against Atp6v1d | inactive: 0.762
74 | GCACCUACUGAUUGAACGCTT against Calb3 | inactive: -0.371
75 | CGGUUCUCUAAAUGGCUCATT against Rhox12 | inactive: -0.219
76 | CCUAUCUUUUCCCUACAUGTT against BC013476 | inactive: -1.11
77 | GGAUCUUCCAAGUUGUCUGTT against Srm | inactive: -0.666
78 | CCUUUUUCGAAAAAUCAGGTT against Lyst | inactive: 0.181

Three successive records already listed:
Row | Sequence | z-score
59 | GGCUUCUACCUUCGAGACUTT against AI790298 | inactive: -0.552
60 | GCUAUGAACUUGUAGGAAATT against 1700042N06Rik | inactive: 0.558
61 | GGCAUUGACACAAGGGAUGTT against Olfr975 | inactive: -2.12

Continuation:

Row | Sequence | z-score
79 | GGAAAUGUGCUUUAUUCGUTT against Tktl1 | inactive: 1.06
80 | CCACUGGUCAUUCUUGCUUTT against Olfr228 | inactive: -0.357
81 | GGUGGAUGAAGACUACAUCTT against Csnk2b | inactive: -1.26
82 | GCAAGACCAAAAUUCGAACTT against Mat2b | inactive: 1.5
83 | GGACCAGGUUCACUUCCCUTT against Ovol1 | inactive: 0.343
84 | GCACCAUGAAUUCUAUUGCTT against Kcnmb1 | inactive: 1.52
85 | CGACAGCUACUACGUGGAUTT against Zfp366 | inactive: 2.06
86 | GGAGCAAGAAAAUGUUCCATT against Akr1b7 | inactive: -1.55
87 | CCUAGGGCUUGUGGUACUATT against Olfr1323 | inactive: 0.1
88 | GGCACUUCCUCCCUCAACATT against 4833420G17Rik | inactive: -0.737
89 | GGUGGUCUACCAGCAUUUGTT against 9430063L05Rik | inactive: -0.726
90 | GGGAGUGGCUGAAAAGUGUTT against AI427652 | inactive: -0.834
91 | GCUGAGUUUUGUGGUAGACTT against Olfr1310 | inactive: 1.04
92 | CCCAUAAAGGAUCUGACAGTT against Casp7 | inactive: -1.61
93 | GGCAGACAUUAAAUAUACUTT against Pax1 | inactive: 1.29
94 | GGACAGUGUUUACAAACUUTT against Fbxw7 | inactive: 0.328
95 | CCUGCAUCAGGACUAUUGGTT against Fndc4 | inactive: -0.414
96 | GCGGAGCCAUAAUGAAUAATT against Rev3l | inactive: 0.228
97 | GGAGAGUCCUUCUGUGACUTT against Tce1 | inactive: 0.948
98 | GGUGAAGCACUUUUGUCCCTT against Rhoc | inactive: 1.25
99 | GGAUUUAGAAGUGUUAAAGTT against Pdlim1 | inactive: -0.579
100 | GGUGUCACCACUUAUGUUGTT against Cyp2b9 | inactive: -0.358
101 | GGAUCUGGAUACUUUUCCATT against Arhgap22 | inactive: 0.406
102 | GGGAUAGUUACAUUGAAGUTT against Acate3 | inactive: 1.33
103 | CCUCCAGUGCUUUUGUAUATT against Olfr1437 | inactive: 0.0203

— PubChem BioAssay AID1347423 (Functional Genomics Laboratory (NCATS/FGL), 2020)
